The list does not hold the whole screen: it gathers tests that were run many times, whatever their T/C, doses with no T/C, and many T/C values between a quarter and a half above the control. Other doses and runs of a compound stand elsewhere. T/C gives the treated animals as a percentage of the vehicle group. Some entries give survivors of the animals treated and no T/C: the source holds a T/C of zero for them, seemingly a mark for toxic or unscored doses. For some of these results: Counts of survivors are from the toxicity check (mostly the fifth day) where no day follows; animals may have died later. Schedule codes are those of the source, taken here to give the interval after Q, in days (D) or hours (H), and the number of doses after X. Where survival is the endpoint, this PubChem deposit counts one and a half times the control or more as active, and values a quarter to a half above the control carry no call in these data; other NCI protocols may use other cut-offs. Some entries were tested several times; their values stand side by side, smallest first. Some T/C values are followed by the survivors on the day toxicity was checked, most often the fifth; without a count, all were alive then.
Key:
[1] = tested on: BDF1 mice, L1210 leukemia sc, survival T/C; test: NCI In Vivo Anticancer Drug Screen. Data for tumor model L1210 Leukemia (subcutaneous) in B6D2F1 (BDF1) mice; conditions: T/C endpoint: median survival time, vehicle: saline, higher T/C = longer survival
In short: (§1)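 Read-out: T/C ratio, i.e. survival or tumor size in treated mice over that in vehicle-treated controls, from mice bearing transplantable tumors.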

[2] = tested on: BDF1 mice, L1210 leukemia sc; test: as above; conditions: T/C endpoint: median survival time, vehicle: saline, higher T/C = longer survival
In short: as §1

[3] = dose: 12.5 mg/kg/injection, schedule: Q04DX003 (sc), evaluated on day 7
[4] = dose: 14.0 mg/kg/injection, schedule: Q04DX003 (sc), evaluated on day 7
[5] = dose: 25.0 mg/kg/injection, schedule: Q04DX003 (sc), evaluated on day 7
[6] = dose: 65.0 mg/kg/injection, schedule: Q04DX003 (sc), evaluated on day 7

SMILES: CC[C@](O)(C(=O)O)c1cc2n(c(=O)c1CO)Cc1cc3ccccc3nc1-2
- T/C [1, 3]: 163 % of control
- T/C ([1]; dose: 12.5 mg/kg/injection, schedule: Q04DX003 (sc), evaluated on day 28): 161 % of control
- T/C [1, 4]: 118 and 155 % of control
- T/C ([1]; dose: 14.0 mg/kg/injection, schedule: Q04DX003 (sc), evaluated on day 35): 122 and 155 % of control
- T/C ([1]; dose: 23.0 mg/kg/injection, schedule: Q04DX003 (sc), evaluated on day 7): 153, 163, 175 % of control
- T/C ([1]; dose: 23.0 mg/kg/injection, schedule: Q04DX003 (sc), evaluated on day 35): 155 and 166 % of control
- T/C ([1]; dose: 23.0 mg/kg/injection, schedule: Q04DX003 (sc), evaluated on day 50): 172 % of control
- T/C [1, 5]: 187 and 206 % of control
- T/C ([1]; dose: 25.0 mg/kg/injection, schedule: Q04DX003 (sc), evaluated on day 25): 189 % of control
- T/C ([1]; dose: 25.0 mg/kg/injection, schedule: Q04DX003 (sc), evaluated on day 28): 205 % of control
- T/C ([1]; dose: 39.0 mg/kg/injection, schedule: Q04DX003 (sc), evaluated on day 7): 152, 156, 160 % of control
- T/C ([1]; dose: 39.0 mg/kg/injection, schedule: Q04DX003 (sc), evaluated on day 35): 155 and 166 % of control
- T/C ([1]; dose: 39.0 mg/kg/injection, schedule: Q04DX003 (sc), evaluated on day 50): 155 % of control
- T/C ([1]; dose: 40.0 mg/kg/injection, schedule: Q07DX003 (sc), evaluated on day 7): 115 and 171 % of control
- T/C ([1]; dose: 40.0 mg/kg/injection, schedule: Q07DX003 (sc), evaluated on day 30): 110 % of control
- T/C ([1]; dose: 40.0 mg/kg/injection, schedule: Q07DX003 (sc), evaluated on day 45): 170 % of control
- T/C ([1]; dose: 50.0 mg/kg/injection, schedule: Q04DX003 (sc), evaluated on day 7): 166, 170, 207 % of control
- T/C ([1]; dose: 50.0 mg/kg/injection, schedule: Q04DX003 (sc), evaluated on day 9): 118 % of control
- T/C ([1]; dose: 50.0 mg/kg/injection, schedule: Q04DX003 (sc), evaluated on day 24): 170 % of control
- T/C ([1]; dose: 50.0 mg/kg/injection, schedule: Q04DX003 (sc), evaluated on day 25): 163 % of control
- T/C ([1]; dose: 50.0 mg/kg/injection, schedule: Q04DX003 (sc), evaluated on day 28): 205 % of control
- T/C ([1]; dose: 50.0 mg/kg/injection, schedule: Q04DX003 (sc), evaluated on day 66): 120 % of control
- T/C ([1]; dose: 50.0 mg/kg/injection, schedule: Q07DX003 (sc), evaluated on day 7): 117 and 185 % of control
- T/C ([1]; dose: 50.0 mg/kg/injection, schedule: Q07DX003 (sc), evaluated on day 9): 121 % of control
- T/C ([1]; dose: 50.0 mg/kg/injection, schedule: Q07DX003 (sc), evaluated on day 25): 115 % of control
- T/C ([1]; dose: 50.0 mg/kg/injection, schedule: Q07DX003 (sc), evaluated on day 45): 175 % of control
- T/C ([1]; dose: 50.0 mg/kg/injection, schedule: Q07DX003 (sc), evaluated on day 66): 120 % of control
- T/C [1, 6]: 152 and 178 % of control
- T/C ([1]; dose: 65.0 mg/kg/injection, schedule: Q04DX003 (sc), evaluated on day 35): 155 and 177 % of control
- T/C ([1]; dose: 200.0 mg/kg/injection, schedule: Q07DX003 (sc), evaluated on day 7): 93 and 122 % of control
- T/C ([1]; dose: 200.0 mg/kg/injection, schedule: Q07DX003 (sc), evaluated on day 25): 94 % of control
- T/C ([1]; dose: 200.0 mg/kg/injection, schedule: Q07DX003 (sc), evaluated on day 28): 111 % of control
- survivor count ([1]; dose: 320.0 mg/kg/injection, schedule: Q07DX003 (sc)): 5 of 8
- T/C ([1]; dose: 400.0 mg/kg/injection, schedule: Q07DX003 (sc), evaluated on day 7): 96 and 101 % of control
- T/C ([1]; dose: 400.0 mg/kg/injection, schedule: Q07DX003 (sc), evaluated on day 25): 94 % of control [6 of 8 alive]
- T/C ([1]; dose: 400.0 mg/kg/injection, schedule: Q07DX003 (sc), evaluated on day 28): 100 % of control
- T/C ([2]; dose: 4.0 mg/kg/injection, schedule: Q01DX009 (ip)): 135 % of control
- T/C ([2]; dose: 4.0 mg/kg/injection, schedule: Q01DX009 (sc)): 126 % of control
- T/C ([2]; dose: 10.0 mg/kg/injection, schedule: Q04DX003 (sc), evaluated on day 7): 145 % of control
- T/C ([2]; dose: 10.0 mg/kg/injection, schedule: Q04DX003 (sc), evaluated on day 30): 140 % of control
- T/C ([2]; dose: 12.5 mg/kg/injection, schedule: Q02DX005 (sc)): 145 % of control
- T/C [2, 3]: 140 and 142 % of control
- T/C ([2]; dose: 12.5 mg/kg/injection, schedule: Q04DX003 (sc), evaluated on day 24): 140 % of control
- T/C ([2]; dose: 12.5 mg/kg/injection, schedule: Q04DX003 (sc), evaluated on day 25): 142 % of control
- T/C [2, 4]: 148 % of control
- T/C ([2]; dose: 14.0 mg/kg/injection, schedule: Q04DX003 (sc), evaluated on day 50): 144 % of control
- T/C ([2]; dose: 20.0 mg/kg/injection, schedule: Q04DX003 (sc), evaluated on day 7): 142 % of control
- T/C ([2]; dose: 20.0 mg/kg/injection, schedule: Q04DX003 (sc), evaluated on day 30): 135 % of control
- T/C [2, 5]: 141 % of control
- T/C ([2]; dose: 25.0 mg/kg/injection, schedule: Q04DX003 (sc), evaluated on day 24): 140 % of control
- T/C ([2]; dose: 50.0 mg/kg/injection, schedule: Q02DX005 (sc), evaluated on day 7): 127 % of control
- T/C ([2]; dose: 50.0 mg/kg/injection, schedule: Q02DX005 (sc), evaluated on day 24): 125 % of control
- T/C [2, 6]: 142 % of control
- T/C ([2]; dose: 65.0 mg/kg/injection, schedule: Q04DX003 (sc), evaluated on day 50): 133 % of control
- T/C ([2]; dose: 65.0 mg/kg/injection, schedule: Q09DX003 (sc)): 125 % of control
- T/C ([2]; dose: 83.3 mg/kg/injection, schedule: Q04DX003 (sc), evaluated on day 9): 131 % of control
- T/C ([2]; dose: 83.3 mg/kg/injection, schedule: Q04DX003 (sc), evaluated on day 66): 130 % of control
- T/C ([2]; dose: 83.3 mg/kg/injection, schedule: Q07DX003 (sc), evaluated on day 9): 127 % of control
- T/C ([2]; dose: 83.3 mg/kg/injection, schedule: Q07DX003 (sc), evaluated on day 66): 130 % of control
- T/C ([2]; dose: 100.0 mg/kg/injection, schedule: Q04DX003 (sc), evaluated on day 7): 128, 133, 145 % of control
- T/C ([2]; dose: 100.0 mg/kg/injection, schedule: Q04DX003 (sc), evaluated on day 24): 130 % of control
- T/C ([2]; dose: 100.0 mg/kg/injection, schedule: Q04DX003 (sc), evaluated on day 25): 142 % of control
- T/C ([2]; dose: 100.0 mg/kg/injection, schedule: Q04DX003 (sc), evaluated on day 28): 127 % of control
- T/C ([2]; dose: 100.0 mg/kg/injection, schedule: Q07DX003 (sc), evaluated on day 7): 125 and 132 % of control
- T/C ([2]; dose: 100.0 mg/kg/injection, schedule: Q07DX003 (sc), evaluated on day 25): 126 % of control
- T/C ([2]; dose: 100.0 mg/kg/injection, schedule: Q07DX003 (sc), evaluated on day 28): 144 % of control
- T/C ([2]; dose: 108.0 mg/kg/injection, schedule: Q04DX003 (sc), evaluated on day 7): 138, 139, 146 % of control
- T/C ([2]; dose: 108.0 mg/kg/injection, schedule: Q04DX003 (sc), evaluated on day 35): 133 and 138 % of control
- T/C ([2]; dose: 108.0 mg/kg/injection, schedule: Q04DX003 (sc), evaluated on day 50): 138 % of control
- T/C ([2]; dose: 108.0 mg/kg/injection, schedule: Q09DX003 (sc)): 126 % of control
- T/C ([2]; dose: 191.0 mg/kg/injection, schedule: Q07DX003 (sc)): 148 % of control
- T/C ([2]; dose: 299.0 mg/kg/injection, schedule: Q07DX003 (sc), evaluated on day 7): 136 % of control
- T/C ([2]; dose: 299.0 mg/kg/injection, schedule: Q07DX003 (sc), evaluated on day 45): 130 % of control

— PubChem BioAssay AID250 (DTP/NCI, 2004)
